No constants are given. Whether binding was seen depends on the method and setting. Binding seen in cells or lysates may run through a third protein. Some binding calls cover weakened binding; strength is not graded here.
Key:
[1] = target: CSNK1A1 (mouse) (mouse (endogenous in BMDMs)) (UniProt Q8BK63); assay: co-IP; endogenous CSNK1A1 IP (anti-CSNK1A1 301-991A, Protein A/G resin) from BMDMs treated with LPS (50 ng/ml, 6 h); 150 mM Tris-HCl pH 7.4, 300 mM NaCl, 1% NP-40; NLRP3 by WB
[2] = target: BRCC3 (mouse) (mouse (endogenous in BMDMs)) (UniProt P46737); assay: co-IP; endogenous BRCC3 IP (anti-BRCC3, ProteinA-Dynabeads) from primary BMDMs or immortalized WT BMDMs treated with LPS (6 h) and nigericin (30 min); 1% NP-40, 150 mM NaCl; NLRP3 by WB
[3] = target: BRCC3 (human, endogenous in U937) (human (endogenous in U937)) (UniProt P46736); assay: co-IP; endogenous BRCC3 IP (anti-BRCC3, ProteinA-Dynabeads) from NLRP3-deficient U937 reconstituted with NLRP3 mutants; PMA and doxycycline (16 h), LPS (5 h), nigericin (20 min); NLRP3 by WB

Protein sequences, listed by entry. Tags and fused reporters are not part of them. Lines headed by an entry give the natural chain unless they say otherwise; changes in a name come on top.
UniProt Q8BK63: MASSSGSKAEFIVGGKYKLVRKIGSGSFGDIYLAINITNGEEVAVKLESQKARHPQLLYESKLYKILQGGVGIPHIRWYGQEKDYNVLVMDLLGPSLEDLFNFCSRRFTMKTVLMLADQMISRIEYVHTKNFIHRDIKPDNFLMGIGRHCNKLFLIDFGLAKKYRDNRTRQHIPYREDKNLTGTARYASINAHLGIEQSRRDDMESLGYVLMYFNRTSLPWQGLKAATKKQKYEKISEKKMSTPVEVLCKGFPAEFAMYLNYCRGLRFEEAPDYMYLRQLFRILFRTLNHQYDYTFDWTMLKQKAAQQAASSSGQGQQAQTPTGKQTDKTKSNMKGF
UniProt P46737: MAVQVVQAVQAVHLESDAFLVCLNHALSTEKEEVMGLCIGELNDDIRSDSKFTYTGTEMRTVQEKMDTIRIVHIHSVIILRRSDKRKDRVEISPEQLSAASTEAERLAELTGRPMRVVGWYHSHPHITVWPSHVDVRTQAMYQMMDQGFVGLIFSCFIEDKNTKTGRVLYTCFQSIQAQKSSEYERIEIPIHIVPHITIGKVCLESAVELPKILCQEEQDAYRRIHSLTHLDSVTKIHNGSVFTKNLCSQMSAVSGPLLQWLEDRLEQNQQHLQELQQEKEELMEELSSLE
UniProt P46736: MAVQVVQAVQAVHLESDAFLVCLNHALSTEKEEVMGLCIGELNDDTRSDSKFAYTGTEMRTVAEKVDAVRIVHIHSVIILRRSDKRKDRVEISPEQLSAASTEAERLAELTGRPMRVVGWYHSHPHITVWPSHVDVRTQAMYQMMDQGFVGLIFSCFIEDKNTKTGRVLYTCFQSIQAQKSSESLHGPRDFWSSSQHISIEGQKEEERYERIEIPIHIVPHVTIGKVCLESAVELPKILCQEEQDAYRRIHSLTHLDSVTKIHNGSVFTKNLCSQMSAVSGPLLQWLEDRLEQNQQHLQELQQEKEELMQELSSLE
UniProt Q8R4B8: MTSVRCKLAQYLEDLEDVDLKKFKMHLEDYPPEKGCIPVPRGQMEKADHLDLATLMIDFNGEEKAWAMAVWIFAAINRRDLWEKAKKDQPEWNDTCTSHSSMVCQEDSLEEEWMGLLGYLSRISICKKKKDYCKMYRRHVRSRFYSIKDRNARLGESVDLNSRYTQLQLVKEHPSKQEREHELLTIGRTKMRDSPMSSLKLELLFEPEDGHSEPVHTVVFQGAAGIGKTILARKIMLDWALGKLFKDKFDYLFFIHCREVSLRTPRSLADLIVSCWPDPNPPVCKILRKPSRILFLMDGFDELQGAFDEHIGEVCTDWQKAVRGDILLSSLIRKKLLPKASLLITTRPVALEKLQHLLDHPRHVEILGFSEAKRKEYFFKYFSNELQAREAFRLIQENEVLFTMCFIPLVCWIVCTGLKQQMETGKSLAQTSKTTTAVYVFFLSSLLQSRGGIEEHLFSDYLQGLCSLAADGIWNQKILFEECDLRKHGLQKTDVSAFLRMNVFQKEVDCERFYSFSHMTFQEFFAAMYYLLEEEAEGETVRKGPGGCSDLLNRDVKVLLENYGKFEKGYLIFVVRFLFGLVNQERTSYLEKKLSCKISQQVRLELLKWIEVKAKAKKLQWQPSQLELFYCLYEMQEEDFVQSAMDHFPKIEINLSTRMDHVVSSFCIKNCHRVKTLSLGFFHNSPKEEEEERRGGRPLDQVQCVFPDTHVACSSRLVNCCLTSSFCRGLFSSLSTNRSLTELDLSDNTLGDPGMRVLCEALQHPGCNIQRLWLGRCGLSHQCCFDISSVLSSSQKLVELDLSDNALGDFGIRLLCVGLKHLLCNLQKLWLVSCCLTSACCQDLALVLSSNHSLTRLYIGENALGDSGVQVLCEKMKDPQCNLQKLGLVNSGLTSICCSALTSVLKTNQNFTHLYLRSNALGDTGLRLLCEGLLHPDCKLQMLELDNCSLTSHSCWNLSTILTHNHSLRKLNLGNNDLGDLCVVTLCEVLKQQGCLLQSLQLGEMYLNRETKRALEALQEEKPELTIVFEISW
UniProt Q96P20: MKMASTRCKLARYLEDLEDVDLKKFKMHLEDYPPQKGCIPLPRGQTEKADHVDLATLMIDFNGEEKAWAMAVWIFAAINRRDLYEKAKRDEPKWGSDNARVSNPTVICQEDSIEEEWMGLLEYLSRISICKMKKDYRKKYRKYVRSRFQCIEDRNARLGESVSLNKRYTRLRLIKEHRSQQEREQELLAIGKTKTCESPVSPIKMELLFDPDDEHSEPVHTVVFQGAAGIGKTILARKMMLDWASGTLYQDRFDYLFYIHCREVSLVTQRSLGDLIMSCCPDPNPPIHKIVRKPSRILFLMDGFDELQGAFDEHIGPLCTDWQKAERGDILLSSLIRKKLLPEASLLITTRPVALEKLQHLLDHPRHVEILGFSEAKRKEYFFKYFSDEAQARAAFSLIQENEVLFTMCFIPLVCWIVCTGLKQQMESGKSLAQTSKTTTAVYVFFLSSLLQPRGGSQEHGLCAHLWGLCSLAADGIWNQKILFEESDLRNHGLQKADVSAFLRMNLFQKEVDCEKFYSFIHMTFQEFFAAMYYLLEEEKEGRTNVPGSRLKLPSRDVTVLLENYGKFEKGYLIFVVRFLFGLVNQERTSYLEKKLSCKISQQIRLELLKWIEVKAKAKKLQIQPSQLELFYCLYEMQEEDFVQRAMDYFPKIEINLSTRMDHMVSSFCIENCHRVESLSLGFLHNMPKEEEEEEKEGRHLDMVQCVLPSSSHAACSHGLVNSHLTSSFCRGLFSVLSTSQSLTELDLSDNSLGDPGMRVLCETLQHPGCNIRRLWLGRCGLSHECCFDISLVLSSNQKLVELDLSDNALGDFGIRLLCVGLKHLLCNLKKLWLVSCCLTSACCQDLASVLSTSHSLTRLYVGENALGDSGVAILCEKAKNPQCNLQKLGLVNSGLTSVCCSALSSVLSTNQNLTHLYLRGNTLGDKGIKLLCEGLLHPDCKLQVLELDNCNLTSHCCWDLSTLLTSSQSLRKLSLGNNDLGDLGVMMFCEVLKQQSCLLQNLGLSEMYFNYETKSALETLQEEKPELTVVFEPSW

For “NLRP3 (mouse, wild type) (from UniProt Q8R4B8 1-1033)”, the binding [1] was “binds”.
With “NLRP3 S803D (mouse, knock-in) (from UniProt Q8R4B8 1-1033)” the binding [2] was “no binding”.
For “NLRP3 S806D (human, doxycycline-inducible in NLRP3-deficient U937) (from UniProt Q96P20 1-1036)”, the binding [3] was “no binding”.

From article PMC8494922
